In article PMC6052479:
Numbering of substitutions follows the chain as printed. No constants are given. Whether binding was seen depends on the method and setting. Binding seen in cells or lysates may run through a third protein. For some of these results: A result given as binding can be weak or reduced; the word gives no strength. Where a sequence is shown, tags or fusion partners need not be part of it.

Assays:
HA-STN1 [1] = molecular target: T1, HA-STN1 (UniProt Q9H668); assay: co-IP; Flag-CTC1 (WT or mutant) together with HA-STN1, no Myc-TEN1; antibody cross-linked sepharose beads incubated with crude cell lysates in TEB150 buffer (50 mM Hepes pH 7.3, 150 mM NaCl, 2 mM MgCl2, 5 mM EGTA, 0.5% Triton X-100, 10% glycerol) overnight at 4°C; immunoblot; endogenous DNA Pol-α (Figures 1f, 5a, 6a, 7a, 7b)
T1 sequence: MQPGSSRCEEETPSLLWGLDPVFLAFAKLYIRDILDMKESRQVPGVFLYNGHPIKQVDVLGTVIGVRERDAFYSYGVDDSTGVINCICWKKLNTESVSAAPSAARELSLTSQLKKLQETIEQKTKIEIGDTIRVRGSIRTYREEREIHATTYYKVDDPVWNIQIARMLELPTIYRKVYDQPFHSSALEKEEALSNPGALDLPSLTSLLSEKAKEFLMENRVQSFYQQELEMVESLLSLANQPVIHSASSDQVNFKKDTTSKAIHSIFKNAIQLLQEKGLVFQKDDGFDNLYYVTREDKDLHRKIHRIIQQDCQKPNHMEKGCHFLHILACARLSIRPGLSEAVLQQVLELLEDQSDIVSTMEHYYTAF

Flag-CTC1^V259M (human) = molecular target: T2, Flag-CTC1^V259M (human) (UniProt Q2NKJ3); assay: as above
T2 sequence: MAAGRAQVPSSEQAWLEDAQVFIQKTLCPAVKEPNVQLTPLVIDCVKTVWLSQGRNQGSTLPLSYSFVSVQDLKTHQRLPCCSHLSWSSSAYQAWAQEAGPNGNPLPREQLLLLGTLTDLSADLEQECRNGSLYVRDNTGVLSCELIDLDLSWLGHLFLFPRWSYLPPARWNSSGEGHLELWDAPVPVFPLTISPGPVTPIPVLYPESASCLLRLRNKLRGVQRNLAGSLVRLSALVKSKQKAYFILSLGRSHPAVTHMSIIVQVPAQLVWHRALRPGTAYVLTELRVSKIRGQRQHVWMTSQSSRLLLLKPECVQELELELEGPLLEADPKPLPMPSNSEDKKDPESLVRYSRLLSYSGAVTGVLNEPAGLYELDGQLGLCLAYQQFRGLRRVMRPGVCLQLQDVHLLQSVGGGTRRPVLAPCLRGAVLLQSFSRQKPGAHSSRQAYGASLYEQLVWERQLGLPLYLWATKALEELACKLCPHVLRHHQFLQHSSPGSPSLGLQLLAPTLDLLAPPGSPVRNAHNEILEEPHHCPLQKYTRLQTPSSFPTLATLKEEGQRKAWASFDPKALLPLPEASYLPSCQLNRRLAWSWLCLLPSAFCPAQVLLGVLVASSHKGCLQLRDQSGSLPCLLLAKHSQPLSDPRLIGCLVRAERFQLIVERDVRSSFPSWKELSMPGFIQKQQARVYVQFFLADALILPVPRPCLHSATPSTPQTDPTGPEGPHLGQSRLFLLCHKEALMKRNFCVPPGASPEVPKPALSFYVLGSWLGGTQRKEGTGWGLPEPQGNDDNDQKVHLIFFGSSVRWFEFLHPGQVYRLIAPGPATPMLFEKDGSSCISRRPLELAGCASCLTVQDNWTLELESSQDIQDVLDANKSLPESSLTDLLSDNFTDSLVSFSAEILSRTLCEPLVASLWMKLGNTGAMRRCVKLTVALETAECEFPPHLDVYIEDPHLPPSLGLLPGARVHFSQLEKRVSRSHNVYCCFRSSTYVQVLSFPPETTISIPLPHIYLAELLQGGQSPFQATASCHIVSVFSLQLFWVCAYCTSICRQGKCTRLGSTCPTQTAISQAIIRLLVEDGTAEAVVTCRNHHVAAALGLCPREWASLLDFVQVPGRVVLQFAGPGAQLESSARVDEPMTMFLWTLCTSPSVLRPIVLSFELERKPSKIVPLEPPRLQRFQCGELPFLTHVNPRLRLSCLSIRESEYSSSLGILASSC

[2] = molecular target: T3, Flag-CTC1^(A227V; V259M) double mutant (human) (UniProt Q2NKJ3); assay: as above
T3 sequence: T2 sequence with A227V

Flag-CTC1^A227V (human) = molecular target: T4, Flag-CTC1^A227V (human) (UniProt Q2NKJ3); assay: as above
T4 sequence: T2 sequence with A227V, M259V

HA-STN1 [3] = molecular target: T1, HA-STN1; assay: co-IP; Flag-CTC1 (WT or L1142H), HA-STN1 and Myc-TEN1 co-expressed in HEK293T cells; crude lysates, TEB150 buffer, overnight 4°C; blot for endogenous DNA Pol-α (Figures 7a, 7b)
HA-STN1 [4] = molecular target: T1, HA-STN1; assay: co-IP; HA-STN1 and Myc-TEN1 co-expressed (S:T) in HEK293T cells, no Flag-CTC1; crude lysates, TEB150 buffer, overnight 4°C; blot for endogenous DNA Pol-α (Figure 7a)
HA-STN1 [5] = molecular target: T1, HA-STN1; assay: co-IP; Flag-CTC1, HA-STN1 or Myc-TEN1 each expressed by itself in HEK293T cells; crude lysates, TEB150 buffer, overnight 4°C; blot for endogenous DNA Pol-α (Figure 7a)

binding (HA-STN1 [1]): binds | binding (Flag-CTC1^V259M (human)): no binding | binding [2]: no binding | binding (Flag-CTC1^A227V (human)): no binding | binding (HA-STN1 [3]): binds | binding (HA-STN1 [4]): binds | binding (HA-STN1 [5]): binds weakly
Substance: endogenous DNA Pol-α (human (endogenous in HEK293T)) (enzyme)
